For some assays here: For expression read-outs the peptide stands for its source gene, whose mRNA was measured; the gene is not named for every peptide.
Assays:
[1] = Absolute quantitation of TUMAP copies per cell (nanoLC-MS/MS, isolation efficiency, DNA-based cell count); parameters: species or system human; details: NSCLC tumor samples; median number of copies per cell
[2] = test system: HLA molecules from shock-frozen tissue samples (CRC, other tumors, normal tissues); test: Identification and label-free relative LC-MS quantitation of HLA-presented tumor associated peptides (presentation profiles, XPRESIDENT); parameters: species or system human; key to Peptide Presentation (presentation score): very highly over-presented on tumors compared to a panel of normal tissues (+++); highly over-presented on tumors compared to a panel of normal tissues (++); over-presented on tumors compared to a panel of normal tissues (+); details: for Other relevant organs/diseases: additional tumor types: over-presented on more than 5% of measured tumor samples, or presented on more than 5% with ratio of geometric means tumor vs normal larger than 3; for Additional Entities (additional tumor types on which the peptide was found): over-presentation on more than 5% of the measured tumor samples, or presentation on more than 5% of the measured tumor samples with ratio of geometric means tumor vs normal tissues larger than 3; for Peptide Presentation (presentation score): over-presentation on tumors compared to a panel of normal tissues
[3] = test system: source genes of the peptides in CRC and normal tissues; test: mRNA expression profiling of source genes encoding the peptides (Affymetrix microarrays); parameters: species or system human; key: very highly over-expressed in tumors compared to a panel of normal tissues (+++); highly over-expressed in tumors compared to a panel of normal tissues (++); over-expressed in tumors compared to a panel of normal tissues (+); details: over-expression in tumors compared to a panel of normal tissues

Substance | Copies per cell (median) [1] | Other relevant organs/diseases [2] | Additional Entities (additional tumor types on which the peptide was found) [2] | Peptide Presentation (presentation score) [2] | Gene Expression (expression score of source gene) [3]
1 (ALIKQLFEA; listed as Homo sapiens) [compound 1] | + (<100 = +) | Lung, Brain, Ovary, Esophagus | SCLC, GC, BRCA, Melanoma, Urinary bladder cancer, Uterine Cancer, Gallbladder Cancer, Bile Duct Cancer, AML, NHL | +++ | 
142 (SLVQRVETI; listed as Homo sapiens) [compound 142] | + (<100 = +) | Lung, Kidney, Liver, Melanoma, Ovary, Esophagus | SCLC, PC, BRCA, Urinary bladder cancer, Uterine Cancer, Gallbladder Cancer, Bile Duct Cancer, NHL | +++ | 
22 (GLIDEVMVL; listed as Homo sapiens) [compound 22] | ++ (>=100 = ++) |  | Gallbladder Cancer, Bile Duct Cancer | +++ | 
84: peptide found in DSP (gene looked up) (SMVEDITGLRL; listed as Homo sapiens) [compound 84] |  | Lung, Liver, Esophagus | SCLC, OC, Urinary bladder cancer, Uterine Cancer, NHL |  | +
187: peptide found in CNOT1 (gene looked up) (GLHNVVYGI; listed as Homo sapiens) [compound 187] |  | Prostate | CLL, Melanoma, Urinary bladder cancer, NHL | ++ | +
129: peptide found in CNOT1 (gene looked up) (VLIDVLKEL; listed as Homo sapiens) [compound 129] |  | Kidney, Leukocytes | Melanoma, NHL | +++ | +
47: peptide found in ERBB3 (gene looked up) (KLYERCEVV; listed as Homo sapiens) [compound 47] |  | Liver | Melanoma | ++ | +
152 (KLLAVIHEL; listed as Homo sapiens) [compound 152] | +++ (>=1,000 +++) | Lung, Kidney, Pancreas, Ovary, Esophagus | BRCA, Melanoma, Urinary bladder cancer, Gallbladder Cancer, Bile Duct Cancer, AML, NHL | + | 
192: peptide found in MMP12 (gene looked up) (KIQEMQHFL; listed as Homo sapiens) [compound 192] |  | Lung, Esophagus |  | +++ | ++
139: peptide found in NCAPG (gene looked up) (VLLNEILEQV; listed as Homo sapiens) [compound 139] |  | Lung, Liver, Melanoma, Ovary, Esophagus | SCLC, CLL, Urinary bladder cancer, Uterine Cancer, AML, NHL, PC | + | +++
156: peptide found in TOP2A (gene looked up) (SLMMTIINL; listed as Homo sapiens) [compound 156] |  | Lung, Liver, Melanoma | SCLC, GC, Urinary bladder cancer, Uterine Cancer, Gallbladder Cancer, Bile Duct Cancer, AML, NHL, OC | ++ | +++
130: peptide found in PRRC2C (gene looked up) (GLGGSQLIDTHL; listed as Homo sapiens) [compound 130] |  |  | Esophageal Cancer, Uterine Cancer | +++ | ++
215: peptide found in CENPE (gene looked up) (KLQEKIQEL; listed as Homo sapiens) [compound 215] |  | Lung, Ovary, Esophagus |  | +++ | +
13: peptide found in SMC2 (gene looked up) (FLLAEDTKV; listed as Homo sapiens) [compound 13] |  | Melanoma | Urinary bladder cancer, AML, NHL, OC | +++ | +++
228: peptide found in HNRNPH1 (gene looked up) (SMSGYDQVL; listed as Homo sapiens) [compound 228] |  | Lung, Leukocytes |  | + | +++
123: peptide found in RRM1 (gene looked up) (KTLERSYLL; listed as Homo sapiens) [compound 123] |  | Lung, Kidney, Liver, MCC, Ovary, Esophagus | SCLC, BRCA, Urinary bladder cancer, Uterine Cancer, AML, NHL, PC | +++ | +++
140: peptide found in NCAPG (gene looked up) (LLNEILEQV; listed as Homo sapiens) [compound 140] |  | Lung, Melanoma, Ovary | SCLC, CLL, Urinary bladder cancer, Uterine Cancer, Gallbladder Cancer, Bile Duct Cancer, AML, NHL |  | +++
67: peptide found in SMARCA4 (gene looked up) (SLNDLEKDVMLL; listed as Homo sapiens) [compound 67] |  | Leukocytes, Melanoma | SCLC, Urinary bladder cancer, Uterine Cancer, AML, NHL | + | ++
